Values from PubChem BioAssay AID1508588 (Peter MacCallum Cancer Centre, 2020)
In all, the deposit lists about 18,000 reagents; this is a random part of them. 790 of all reagents (4.4%) count as active. 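Calls rest on a combination of fold-change classes in drug and vehicle arms, not all shown here.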

- Test: 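Genome-wide search for knock-downs that heighten vemurafenib action in melanoma cells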 (primary screen)
- Cell system: human WM266.4 melanoma cells (BRAF V600 mutant)
- Reagent: siRNA pool against human genes, 40 nM
- Duration: 96 h from transfection to read-out
- Conditions: vemurafenib 300 nM (about IC25), added 48 h after transfection, for 48 h; comparison arm got DMSO vehicle only
- Read-out: 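Ratios to non-targeting siRNA for cell gain, counted as DAPI nuclei after minus before drug and averaged over two replicates, and for absorbance-read medium lactate per cell; both binned into fold-change classes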
- Reading the numbers: cell gain with vemurafenib: higher = more cell gain than with non-targeting siRNA; lactate per cell with vemurafenib: higher = more lactate made per cell
- Rule for the call: 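a knock-down counts as enhancing when its fold-change classes with vehicle and with vemurafenib, taken together, show a stronger drug effect on cell gain or lactate per cell; exact class pairs not stated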
- Meaning of the calls: active = enhances vemurafenib effect; inactive = no enhancement seen

How did the screen score ACTMAP (actin maturation protease)?
cell gain with vemurafenib: 0.59; lactate per cell with vemurafenib: 1.17; outcome: inactive

For MTG2 (mitochondrial ribosome associated GTPase 2), what does the deposit list?
cell gain with vemurafenib: 0.67; lactate per cell with vemurafenib: 1.43; outcome: inactive

With COX16 (cytochrome c oxidase assembly factor COX16), how do the results read?
cell gain with vemurafenib: 0.86; lactate per cell with vemurafenib: 1.16; outcome: inactive

With FCGR2C (Fc gamma receptor IIc (gene/pseudogene)), how do the results read?
cell gain with vemurafenib: 0.33; lactate per cell with vemurafenib: 1.72; outcome: inactive

Which result is listed for SALL1 (spalt like transcription factor 1)?
cell gain with vemurafenib: 0.12; lactate per cell with vemurafenib: 1.97; outcome: inactive

For LTV1 (LTV1 ribosome biogenesis factor), what does the deposit list?
cell gain with vemurafenib: 0.54; lactate per cell with vemurafenib: 0.49; outcome: inactive

For KIF22 (kinesin family member 22), what does the deposit list?
cell gain with vemurafenib: 0.52; lactate per cell with vemurafenib: 1.35; outcome: inactive

With RND1 (Rho family GTPase 1), how do the results read?
cell gain with vemurafenib: 0.81; lactate per cell with vemurafenib: 1.27; outcome: inactive

With PARP8 (poly(ADP-ribose) polymerase family member 8), how do the results read?
cell gain with vemurafenib: 0.95; lactate per cell with vemurafenib: 0.62; outcome: inactive

What is on record for STMN1 (stathmin 1)?
cell gain with vemurafenib: 1.17; lactate per cell with vemurafenib: 0.98; outcome: inactive

With SCOC (short coiled-coil protein), what does the deposit list?
cell gain with vemurafenib: 0.48; lactate per cell with vemurafenib: 1.46; outcome: inactive

How did the screen score NFRKB (nuclear factor related to kappaB binding protein)?
cell gain with vemurafenib: 0.59; lactate per cell with vemurafenib: 0.72; outcome: inactive

With TIMM23B (translocase of inner mitochondrial membrane 23 homolog B), how do the results read?
cell gain with vemurafenib: -0.08; lactate per cell with vemurafenib: 1.53; outcome: inactive

With RAD23A (RAD23 nucleotide excision repair protein A), what does the deposit list?
cell gain with vemurafenib: 0.33; lactate per cell with vemurafenib: 1.09; outcome: inactive

What is on record for C3orf36 (chromosome 3 putative open reading frame 36)?
cell gain with vemurafenib: 0.7; lactate per cell with vemurafenib: 0.88; outcome: inactive

For IFNA4 (interferon alpha 4), how do the results read?
cell gain with vemurafenib: 0.86; lactate per cell with vemurafenib: 0.9; outcome: inactive

With TRIM10 (tripartite motif containing 10), what does the deposit list?
cell gain with vemurafenib: 0.64; lactate per cell with vemurafenib: 0.96; outcome: inactive

For PLEKHB2 (pleckstrin homology domain containing B2), what was measured?
cell gain with vemurafenib: 0.91; lactate per cell with vemurafenib: 0.66; outcome: inactive

Which result is listed for TNFRSF17 (TNF receptor superfamily member 17)?
cell gain with vemurafenib: 0.09; lactate per cell with vemurafenib: 1.27; outcome: inactive

What did the screen give for ZNF345 (zinc finger protein 345)?
cell gain with vemurafenib: 0.55; lactate per cell with vemurafenib: 0.52; outcome: active

What did the screen give for KCNK17 (potassium two pore domain channel subfamily K member 17)?
cell gain with vemurafenib: 0.77; lactate per cell with vemurafenib: 0.9; outcome: inactive

Targets above whose gene name begins with S or s (3):
SALL1 (spalt like transcription factor 1) | cell gain with vemurafenib = 0.12; lactate per cell with vemurafenib = 1.97; outcome = inactive
STMN1 (stathmin 1) | cell gain with vemurafenib = 1.17; lactate per cell with vemurafenib = 0.98; outcome = inactive
SCOC (short coiled-coil protein) | cell gain with vemurafenib = 0.48; lactate per cell with vemurafenib = 1.46; outcome = inactive

Continued.
Which result is listed for MED26 (mediator complex subunit 26)?
cell gain with vemurafenib: 0.14; lactate per cell with vemurafenib: 2.03; outcome: inactive

What is on record for SLC25A25?
cell gain with vemurafenib: 0.76; lactate per cell with vemurafenib: 0.98; outcome: inactive

For AMER2 (APC membrane recruitment protein 2), how do the results read?
cell gain with vemurafenib: 0.11; lactate per cell with vemurafenib: 1.4; outcome: inactive

For ZNF335 (zinc finger protein 335), what was measured?
cell gain with vemurafenib: 0.58; lactate per cell with vemurafenib: 0.56; outcome: inactive

For TMEM105 (TMEM105 long non-coding RNA), what does the deposit list?
cell gain with vemurafenib: 0.9; lactate per cell with vemurafenib: 0.69; outcome: inactive

What did the screen give for SPINT2 (serine peptidase inhibitor, Kunitz type 2)?
cell gain with vemurafenib: 1.74; lactate per cell with vemurafenib: 0.82; outcome: inactive

What did the screen give for GPR162 (G protein-coupled receptor 162)?
cell gain with vemurafenib: 0.18; lactate per cell with vemurafenib: 2.3; outcome: inactive

For BTBD9 (BTB domain containing 9), what was measured?
cell gain with vemurafenib: 0.96; lactate per cell with vemurafenib: 0.5; outcome: inactive

How did the screen score FAM162A (family with sequence similarity 162 member A)?
cell gain with vemurafenib: 0.97; lactate per cell with vemurafenib: 0.45; outcome: inactive

How did the screen score CD93 (CD93 molecule)?
cell gain with vemurafenib: 0.77; lactate per cell with vemurafenib: 0.96; outcome: inactive

How did the screen score KIR3DL1?
cell gain with vemurafenib: 0.64; lactate per cell with vemurafenib: 0.66; outcome: inactive

How did the screen score OR10H3 (olfactory receptor family 10 subfamily H member 3)?
cell gain with vemurafenib: 0.88; lactate per cell with vemurafenib: 0.56; outcome: inactive

How did the screen score COX4I1 (cytochrome c oxidase subunit 4I1)?
cell gain with vemurafenib: 0.84; lactate per cell with vemurafenib: 1.47; outcome: inactive

What is on record for SERP2?
cell gain with vemurafenib: 0.29; lactate per cell with vemurafenib: 0.9; outcome: inactive

Which result is listed for SPRR1B (small proline rich protein 1B)?
cell gain with vemurafenib: 0.17; lactate per cell with vemurafenib: 2.38; outcome: inactive

Which result is listed for GRWD1 (glutamate rich WD repeat containing 1)?
cell gain with vemurafenib: 0.4; lactate per cell with vemurafenib: 0.88; outcome: inactive

With BNC2 (basonuclin zinc finger protein 2), what was measured?
cell gain with vemurafenib: 0.44; lactate per cell with vemurafenib: 1.5; outcome: inactive

For RPL23AP82 (ribosomal protein L23a pseudogene 82), what was measured?
cell gain with vemurafenib: 0.31; lactate per cell with vemurafenib: 1.4; outcome: inactive

For CLUH (CLUH binding protein of NUMT mRNA), what was measured?
cell gain with vemurafenib: 0.58; lactate per cell with vemurafenib: 0.59; outcome: inactive
